{"source": "PubChem BioAssay AID1224826 (NIAID, 2016)", "purpose": "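Genes that change LPS-induced Tnf promoter activity in mouse macrophages when knocked down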 (primary screen)", "cells": "RAW264.7 G9 macrophages from mouse bearing reporters for p65 (GFP) and the Tnf promoter (mCherry)", "knock-down reagent": "siRNA pool against mouse genes, 100 nM", "timing": "16 h of LPS stimulation, after 2 days of siRNA transfection", "treatment": "bacterial lipopolysaccharide (Salmonella minnesota R595), 10 ng/ml", "read-out": "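Imaged Tnf reporter mCherry in nuclei, minus background, normalised per plate to the median and expressed as robust z-scores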", "scale": "Tnf reporter robust z-score: higher = stronger Tnf promoter reporter signal after LPS", "active means": "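a well counts as active at a score of -1.3 or below (Tlr4 knock-down control median) or above 3 (raised signal); controls and wells holding fewer than 50 cells are excluded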", "calls": "active = Tnf reporter clearly lowered or raised; inactive = no clear change in Tnf reporter", "note": "Here is one part, drawn at random, of about 17,000 reagents tested. Of all reagents, about 1,110 (6.6%) got an active call. 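Active means lowered or raised reporter signal; replicate intensities are raw and not normalised per plate.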 Not all columns of the deposit are shown."}
{"gene symbol": "Psg23", "PubChem SID": "SID315471708", "Tnf reporter robust z-score": 0.27, "fewer than 50 cells in well": "enough cells in well", "outcome": "inactive"}
{"gene symbol": "Prrc2b", "PubChem SID": "SID315478596", "Tnf reporter robust z-score": -0.09, "fewer than 50 cells in well": "enough cells in well", "outcome": "inactive"}
{"gene symbol": "Ttn", "PubChem SID": "SID315469866", "fewer than 50 cells in well": "fewer than 50 cells per well; well left out of calls", "outcome": "inactive"}
{"gene symbol": "Ttn", "PubChem SID": "SID315469867", "fewer than 50 cells in well": "fewer than 50 cells per well; well left out of calls", "outcome": "inactive"}

Continued; the last 2 above are carried over.
{"gene symbol": "Ttn", "PubChem SID": "SID315469866", "fewer than 50 cells in well": "fewer than 50 cells per well; well left out of calls", "outcome": "inactive"}
{"gene symbol": "Ttn", "PubChem SID": "SID315469867", "fewer than 50 cells in well": "fewer than 50 cells per well; well left out of calls", "outcome": "inactive"}
{"gene symbol": "Tlm", "PubChem SID": "SID315469741", "Tnf reporter robust z-score": 2.47, "fewer than 50 cells in well": "enough cells in well", "outcome": "inactive"}
{"gene symbol": "Bfsp1", "PubChem SID": "SID315465629", "Tnf reporter robust z-score": -0.07, "fewer than 50 cells in well": "enough cells in well", "outcome": "inactive"}
{"gene symbol": "Fzd5", "PubChem SID": "SID315466776", "Tnf reporter robust z-score": -0.4, "fewer than 50 cells in well": "enough cells in well", "outcome": "inactive"}
{"gene symbol": "Zfp52", "PubChem SID": "SID315470122", "Tnf reporter robust z-score": 1.43, "fewer than 50 cells in well": "enough cells in well", "outcome": "inactive"}
{"gene symbol": "Itih1", "PubChem SID": "SID315467526", "Tnf reporter robust z-score": 0.2, "fewer than 50 cells in well": "enough cells in well", "outcome": "inactive"}
{"gene symbol": "Zbtb3", "PubChem SID": "SID315475096", "Tnf reporter robust z-score": -0.29, "fewer than 50 cells in well": "enough cells in well", "outcome": "inactive"}
{"gene symbol": "Hsd17b11", "PubChem SID": "SID315477031", "Tnf reporter robust z-score": 0.73, "fewer than 50 cells in well": "enough cells in well", "outcome": "inactive"}
{"gene symbol": "Mitf", "PubChem SID": "SID315467928", "Tnf reporter robust z-score": -0.89, "fewer than 50 cells in well": "enough cells in well", "outcome": "inactive"}
